Source: PMC10147607, “MSI2 promotes translation of multiple IRES-containing oncogenes and virus to induce self-renewal of tumor initiating stem-like cells” (Cell Death Discovery, 2023)

Sequences of proteins named here, by UniProt entry; tags and fusion partners are left off. A change or cut given only in a name is not applied to a line headed by its entry.
UniProt Q96DH6: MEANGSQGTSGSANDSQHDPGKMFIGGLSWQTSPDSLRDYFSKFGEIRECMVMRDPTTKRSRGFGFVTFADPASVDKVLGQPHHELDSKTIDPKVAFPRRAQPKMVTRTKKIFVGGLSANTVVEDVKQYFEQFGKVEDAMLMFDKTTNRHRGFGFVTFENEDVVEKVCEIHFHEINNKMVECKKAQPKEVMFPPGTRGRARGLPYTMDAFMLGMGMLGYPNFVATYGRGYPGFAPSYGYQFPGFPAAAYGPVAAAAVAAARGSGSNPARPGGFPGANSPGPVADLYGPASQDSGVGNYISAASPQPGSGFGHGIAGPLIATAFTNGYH

Target: MSI2 (human) (UniProt Q96DH6)
Assay: fluorescence polarization
Details: recombinant protein; protein details: His6; label: FITC

“AAUUCCAGCGAGAG [FITC MYC IRES MSI2-ligand RNA wild type]”: binds.

Construct, isoform or probe ends are uncertain for at least one entry. At least one verdict rests on a figure or table, not on a statement of the authors.
